# Source: PubChem BioAssay AID2685 (National Center for Advancing Translational Sciences (NCATS), 2010)
# Some of the results follow. Shown are side measurements of this screen, not its main read-out; they come without a call. Most of these compounds were active or inconclusive in the main read-out, so they are no random draw. The note in brackets gives the kind of curve behind each potency; many fits are weak.
# Assay: qHTS Assay for Lipid Storage Modulators in Drosophila S3 Cells;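 on cell number change: cells counted by Cell Tracker Red CMTPX staining in the red channel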
# Conditions: BODIPY lipid droplet fluorescence, 18-24 h; for cell number change: measured here: cell count max response, cells fed with added oleic acid
# Procedure, shortened: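 Laser-scanning cytometry quantifies lipid droplet accumulation (500–530 nm total intensity; droplet/cell object ratio) in oleic acid-fed (400 uM added) Drosophila S3 cells treated with a concentration series. 20 uM Triacsin C defined 100% inhibition.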
# [1] = measured here: lipid fluorescence (Fed channel) AC50, cells fed with added oleic acid
# [2] = measured here: cell number channel AC50, cells fed with added oleic acid
compound,measurement,setting,value
COC(=O)C1=C(C(=O)OC)[C@@H]2N(C)c3ccc(OC)cc3[C@@]23C[C@@H](C(=O)OC)N(C(=O)c2cccs2)C3=N1,cell number change,,23.1%
same,AC50,[1],"6510 nM [rising, single point]"
COc1cc(Cl)c([C@@H]2C[C@H]3CN(c4ccccc4)C(=O)[C@]34CCCN24)cc1OC,cell number change,,-15.9%
same,AC50,[2],"6510 nM [falling, single point]"
O=C(Nc1ccc2nc3n(c(=O)c2c1)CCCCC3)C(=O)N1CCN(c2ccc(F)cc2)CC1,cell number change,,-3.83%
CCOc1ccccc1-n1c(SCC(=O)Nc2nccs2)nnc1-c1ccoc1C,cell number change,,-9.57%
same,AC50,[1],"164 nM [rising, full curve]"
COc1ccc(NC(=O)CSc2nnc(NC(=O)C3CCC3)s2)cc1,cell number change,,39.3%
same,AC50,[2],"29100 nM [rising, single point]"
same,AC50,[1],"103 nM [rising, full curve, poor fit]"
Cc1cccc(N(C)C(=O)COc2cc(=O)n(C)c3ccccc23)c1,cell number change,,-14.4%
same,AC50,[1],"65.1 nM [rising, full curve, poor fit]"
O=C(N/N=C/C1CC=CCC1)c1cc(Br)ccc1O (configuration not stated),cell number change,,-9.38%
same,AC50,[1],"6510 nM [falling, partial curve, poor fit]"
Cc1cccc(C(=O)C2CCN(S(=O)(=O)c3cccc(C(=O)O)c3)CC2)c1,cell number change,,-1.21%
same,AC50,[1],"2910 nM [falling, single point]"
O=C1CC(c2ccccc2Cl)CC(O)=C1C=Nc1ccccc1 (configuration not stated),cell number change,,24.4%
same,AC50,[1],"29100 nM [rising, single point]"
N#Cc1ccc(OCC(=O)Nc2ccc(N3CCCC3)cc2)cc1,cell number change,,-14.2%
Cc1ccc2ccccc2c1Cn1c(-n2ccnc2)nc2c1c(=O)n(C)c(=O)n2C,cell number change,,31.4%
same,AC50,[2],"146 nM [rising, full curve, poor fit]"
same,AC50,[1],"29100 nM [rising, partial curve, poor fit]"
OCC[C@@H]1C[C@H](O)[C@@H](O)[C@]2(CCc3ccccc3O2)O1,cell number change,,18.9%
same,AC50,[1],"16.4 nM [falling, full curve, poor fit]"
COc1ccc(N=C2NC(=O)/C(=C\C=C\c3ccco3)S2)cc1,cell number change,,-51.3%
same,AC50,[2],"32600 nM [falling, single point]"
CC(Sc1nc(N)cc(=O)[nH]1)C(=O)N1CCOCC1 (configuration not stated),cell number change,,-18.6%
same,AC50,[1],"4110 nM [falling, full curve]"
CCCC(C(=O)Nc1ccc(S(=O)(=O)N2CCOCC2)cc1)c1ccccc1 (configuration not stated),cell number change,,-4.57%
same,AC50,[1],"731 nM [falling, single point]"
O=C(Nc1ccc(Br)cc1)c1ccc(F)c(S(=O)(=O)N2CCN(c3ccccn3)CC2)c1,cell number change,,-6.32%
same,AC50,[2],"103 nM [falling, full curve, poor fit]"
same,AC50,[1],"206 nM [falling, full curve, poor fit]"
CCN1c2ccccc2-c2nc3ccccc3n2C1c1ccco1 (configuration not stated),cell number change,,73.9%
COc1ccc(C(=O)OCc2cc(=O)n3c(C)csc3n2)cc1F,cell number change,,12.6%
same,AC50,[1],"32600 nM [rising, single point]"
CC(C)CCn1c(SCC(=O)OCn2nnc3ccccc3c2=O)nc2ccccc2c1=O,AC50,[2],"2590 nM [rising, single point]"
Cc1ccc(CC(=O)N2CCN(C(=O)C3CCCO3)CC2)cc1 (configuration not stated),AC50,[2],"6510 nM [rising, single point]"
Cc1ccc(C)c(NC(=S)NC(NC(=O)Cc2ccccc2)C(Cl)(Cl)Cl)c1 (configuration not stated),cell number change,,-32.1%
same,AC50,[2],"16400 nM [falling, single point]"
same,AC50,[1],"2910 nM [rising, single point]"
Cc1cccc(Oc2ccccc2NC(=O)C2=COCCO2)c1,cell number change,,-9.17%
same,AC50,[1],"731 nM [falling, single point]"
COc1ccc(-c2nc(CSCC(=O)N3CCN(c4cccc(C)c4)C(C)C3)c(C)o2)cc1OC (configuration not stated),cell number change,,-9.97%
same,AC50,[1],"29100 nM [falling, single point]"
O=C(Nc1c2c(nn1-c1ccccc1)CSC2)c1ccc(N2C(=O)CCC2=O)cc1,cell number change,,-18.8%
same,AC50,[2],"517 nM [falling, full curve, poor fit]"
COc1cc2c(cc1NC(=O)COc1ccccc1OC)oc1ccccc12,cell number change,,93.7%
same,AC50,[2],"2060 nM [rising, full curve]"
Cc1cccc(OCCC(=O)OCc2csc(CC(=O)Nc3ccccc3C)n2)c1,cell number change,,44.6%
same,AC50,[2],"29100 nM [rising, single point]"
same,AC50,[1],"3660 nM [rising, partial curve]"
CCOC(=O)c1oc2cc(OCC(N)=O)ccc2c(=O)c1-c1ccc(OC)c(OC)c1,cell number change,,10.3%
same,AC50,[2],"2910 nM [falling, single point]"
same,AC50,[1],"291 nM [falling, full curve]"
COC(=O)Nc1nnc(Cc2ccccc2)s1,cell number change,,10.1%
same,AC50,[2],"206 nM [falling, full curve, poor fit]"
same,AC50,[1],"5800 nM [falling, partial curve, poor fit]"
CC1(C)CC(NC(=O)COc2ccc([N+](=O)[O-])cc2)CC(C)(C)N1,cell number change,,-17.2%
same,AC50,[1],"4610 nM [falling, full curve, poor fit]"
C#CCOCCOCCOCCNc1nc(N2CCN(C(=O)[C@H](CCC(=O)O)n3cc(C(N)CC(C)C)nn3)CC2)nc(N2CCN(C(=O)[C@H](Cc3ccc(O)cc3)n3cc(C(N)[C@H](C)CC)nn3)CC2)n1 (some centres not stated),cell number change,,-9.91%
same,AC50,[1],"5.8 nM [falling, full curve, poor fit]"
CCCCn1c(N)c(N(CC(C)C)C(=O)CSC(C)C(=O)Nc2cc(C)on2)c(=O)[nH]c1=O (configuration not stated),cell number change,,-75%
same,AC50,[2],"1640 nM [falling, full curve]"
same,AC50,[1],"29100 nM [rising, single point]"
CNC(=O)/C(C#N)=C/c1cc(C)n(-c2ccc(N3CCOCC3)cc2)c1C,cell number change,,-38.2%
same,AC50,[2],"20600 nM [falling, single point]"
same,AC50,[1],"25900 nM [falling, single point]"
COc1ccc(C2C(C(=O)Nc3cc(OC)c(OC)c(OC)c3)c3ccccc3C(=O)N2C)cc1 (configuration not stated),cell number change,,34.8%
CC(C)(O)[C@@H]1Cc2c(ccc3ccc(=O)oc23)O1,cell number change,,-25.4%
same,AC50,[2],"130 nM [falling, full curve]"
same,AC50,[1],"2590 nM [falling, full curve]"

# Two entries drawn at random from the list so far:
compound,measurement,setting,value
CCCCn1c(N)c(N(CC(C)C)C(=O)CSC(C)C(=O)Nc2cc(C)on2)c(=O)[nH]c1=O (configuration not stated),AC50,[2],"1640 nM [falling, full curve]"
CCOc1ccccc1-n1c(SCC(=O)Nc2nccs2)nnc1-c1ccoc1C,cell number change,,-9.57%
